The whole screen tested about 330,000 compounds, of which about 7,700 (2.3%) were called active. The inconclusive results got no clear call from the source; some entries with a clear call stand among them for comparison. Calls follow the shape of the dose curve; as a rule, active = well fitted inhibition curve with a large enough effect; inconclusive = small, poorly fitted or top-dose-only effect, or effect the other way; inactive = flat fitted curve, though single readings scatter. A potency beside an inconclusive call is a rough fit, not a confirmed value.
Assay: qHTS screen for small molecules that inhibit ELG1-dependent DNA repair in human embryonic kidney (HEK293T) cells expressing luciferase-tagged ELG1; also: nearly all actives have a fitted effect of over 55% in size
Conditions: HEK293T ELG1-luciferase reporter, luminescence, 16 h, DNA damage induced by 5-fluorouridine; activity change, negative = inhibition: at 46.1 µM (top of the series)
Outline: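 HEK293T cells expressing luciferase-tagged ELG1 (2,000/well) received 5-Fluorouridine plus compound or DMSO for 16 hr at 37 °C. Luciferase was read by ONE-Glo luminescence after 30 min at room temperature.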
% is scaled to controls: 0 for no effect and ±100 for the full control effect; potency is read from the fitted curve at half-maximal effect.

Row | Compound | Potency | activity change, negative = inhibition
1 | COc1cc(C(=O)NCC2CCCO2)ccc1OCc1ccccc1Cl (stereo unspecified) | inconclusive: 23.1 µM [inhibitor, single point] | 
2 | COc1cc(-c2nc(-c3cccnc3)no2)cc(OC)c1OC | active: 23.1 µM | 
3 | CCn1cc[n+](C)c1P(c1ccccc1)c1ccccc1 |  | inactive: 10.1%
4 | Cc1[nH]c(=S)c(C#N)c(-c2ccccc2)c1C(=O)Nc1ccccc1 | inconclusive: 18.3 µM [activator, partial curve, poor fit] | 
5 | Cc1cc(N2CCCC2)c(F)cc1/C=C\[N+](=O)[O-] |  | inactive: 14.5%
6 | Cc1noc(NS(=O)(=O)c2ccc(N/C=C/C(=O)c3ccccc3)cc2)c1C | inconclusive: 23.1 µM [activator, partial curve, poor fit] | 
7 | NNC(=O)c1cc(Cl)ccc1Cl |  | inactive: -13.6%
8 | COc1ccc(CN(Cc2cccn2C)S(=O)(=O)c2cccc(C(F)(F)F)c2)cc1 | inconclusive: 10.3 µM [inhibitor, partial curve, poor fit] | 
9 | CCOC(=O)C1(Cc2ccccc2)CCCN(C(=O)C=C(C)C)C1 (stereo unspecified) | inconclusive: 18.3 µM [activator, partial curve] | 
10 | CN1CCN(C(=O)c2cnn(-c3ccccc3)c2NC(=O)c2ccccc2Br)CC1 |  | inactive: 19.1%
11 | Cc1ccc(S(=O)(=O)N2CCOCC2)cc1NC(=O)CSc1nc2ccccc2c(=O)n1Cc1ccccc1 |  | inactive: -27.5%
12 | CC(=O)NCCc1ccc(S(=O)(=O)N2CCN(c3nc(-c4ccccc4)c(C)s3)CC2)cc1 | inconclusive: 20.6 µM [inhibitor, single point] | 
13 | Cc1ccc(/C=C2/N=C(c3ccccc3)NNC2=O)cc1 | inconclusive: 16.4 µM [inhibitor, single point] | 
14 | COc1ccc(NC(=O)CN(C)C(=O)C2=NN(c3ccccc3)C(=O)CC2)cc1 |  | inactive: 15.4%
15 | Cc1ccccc1NC(=S)NCc1ccc2[nH]c3c(c2c1)CCCC3 | inconclusive: 29.1 µM [inhibitor, single point] | 
16 | Cn1c(=O)c2c(SCC(=O)Nc3nccs3)nc(C3CC3)nc2n(C)c1=O |  | inactive: -0.661%
17 | COc1ccccc1-c1nc(-c2ccc(Br)cc2)no1 | inconclusive: 8.2 µM [activator, partial curve] | 
18 | COc1ccc(O)c(-c2[nH]ncc2C(=O)c2ccccc2)c1 | active: 23.1 µM | 
19 | CCc1ccc(-c2cnc3ccccc3n2)cc1NC(=O)CNC(=O)c1ccccc1 | inconclusive: 3.26 µM [activator, full curve] | 
20 | N#Cc1ccc(/C=C/C(=O)c2ccco2)cc1 | inconclusive: 29.1 µM [inhibitor, single point] | 
21 | COc1ccc(C2Nc3ccccc3C(=O)N2c2ccc(C)cc2)cc1Cn1nnc2ccccc21 (stereo unspecified) | inconclusive: 11.6 µM [activator, partial curve] | 
22 | COc1cc(-c2nc3ccccc3c(=O)n2N)cc(OC)c1OC |  | inactive: 2.02%
23 | CCOc1ccc(OCC)c(-c2c(=O)n(OCc3ccccc3C(=O)OC)c3ccccc3[n+]2[O-])c1 | inconclusive: 16.4 µM [inhibitor, single point] | 

Row | Compound | Potency | activity change, negative = inhibition
24 | S=C1NC2(CCCC2)N=C1c1ccccc1 |  | inactive: 13.4%
25 | NC(=O)C1CCCc2c1n(Cc1ccccc1)c1ccccc21 (stereo unspecified) |  | inactive: -9.38%
26 | CC(=O)Oc1ccc2nc(/C=C/c3ccc(C=O)cc3)oc(=O)c2c1 |  | inactive: 16.6%
27 | Oc1cccc(Oc2ncc(C(F)(F)F)cc2Cl)c1 |  | inactive: 24.3%
28 | CCOc1ccc(NC(=O)c2sc3nc(C)nc(N4CCOCC4)c3c2C)cc1 | active: 13 µM | 
29 | CC(NC(=O)CNC(=O)c1cccc(Cl)c1)c1ccccc1 (stereo unspecified) | inconclusive: 0.184 µM [inhibitor, single point] | 
30 | CCOc1ncccc1C(=O)NCc1cccc(OC)c1 |  | inactive: 4.97%
31 | CCC1Sc2ccc(S(=O)(=O)CCC(=O)NC3CCCCCC3)cc2NC1=O (stereo unspecified) | inconclusive: 20.6 µM [inhibitor, single point] | 
32 | COC(=O)c1cc(-c2c(C)oc3cc(OC(C)C)ccc3c2=O)c(C)o1 | inconclusive: 16.4 µM [inhibitor, single point] | 
33 | Cc1ccc(CCN2CCN=C2N(C)C)cc1 | inconclusive: 29.1 µM [activator, single point] | 
34 | O=C(CN1C(=O)c2cccnc2Oc2ccc(Cl)cc21)N1CCCC1 |  | inactive: 12.3%
35 | COc1ccc2cc(C(=O)N(C)CC(=O)Nc3ccccc3Br)ccc2c1 | inconclusive: 13 µM [activator, partial curve] | 
36 | COc1ccc(CCNC(=O)Cn2c(=O)n(-c3ccc(F)cc3F)c(=O)c3sccc32)cc1OC | inconclusive: 25.9 µM [inhibitor, single point] | 
37 | CCN(CC)S(=O)(=O)c1ccc(Cl)c(NC(=O)COC(=O)c2ccc(O)cc2)c1 | inconclusive: 29.1 µM [inhibitor, single point] | 
38 | CSc1cccc(NC(=O)CSc2nc3ccccc3o2)c1 | inconclusive: 5.17 µM [activator, partial curve] | 
39 | COc1ccccc1-c1cc(C(F)(F)F)nc(S(=O)(=O)CCCC(=O)N2CCCCC2C)n1 (stereo unspecified) | inconclusive: 32.6 µM [inhibitor, single point] | 
40 | Cc1cc(C)n2nc(SCC(=O)c3cc(C)n(-c4cc(C)on4)c3C)nc2n1 | inconclusive: 4.11 µM [inhibitor, partial curve, poor fit] | 
41 | O=C(N/N=C/c1ccc(Cl)cc1)Nc1ccccc1 | inconclusive: 12.6 µM [activator, partial curve, poor fit] | 
42 | Cc1ccccc1CSc1ccc(S(=O)(=O)N2CCCC2)cn1 | inconclusive: 18.3 µM [inhibitor, single point] | 
43 | Cc1cc(C(=O)CSc2ccccc2)cc(C)c1O | inconclusive: 20.6 µM [activator, partial curve] | 
44 | Cc1ccc(O)c(C(=O)c2cnc3c(c2)c(-c2ccc(F)cc2)c(C#N)c(=O)n3C)c1 | inconclusive: 29.1 µM [inhibitor, single point] | 
45 | COc1cc(OC)cc(C(=O)NNC(=O)c2cc3c(s2)CCCC3)c1 | inconclusive: 11.6 µM [activator, partial curve] | 
46 | CC1=C(C(=O)OCc2ccccc2)C(c2ccccn2)c2c(n(C)c(=O)n(C)c2=O)N1 (stereo unspecified) | inconclusive: 16.4 µM [inhibitor, single point] | 

Reprinted at random: two compounds from above
Row | Compound | Potency | activity change, negative = inhibition
31 | CCC1Sc2ccc(S(=O)(=O)CCC(=O)NC3CCCCCC3)cc2NC1=O (stereo unspecified) | inconclusive: 20.6 µM [inhibitor, single point] | 
46 | CC1=C(C(=O)OCc2ccccc2)C(c2ccccn2)c2c(n(C)c(=O)n(C)c2=O)N1 (stereo unspecified) | inconclusive: 16.4 µM [inhibitor, single point] | 

— PubChem BioAssay AID504467 (National Center for Advancing Translational Sciences (NCATS), 2011)
